Drawing on article PMC3338798, this text covers binding for one substance.

Amino acid sequences for entries named in this document (tags omitted).
UniProt Q8I5I8: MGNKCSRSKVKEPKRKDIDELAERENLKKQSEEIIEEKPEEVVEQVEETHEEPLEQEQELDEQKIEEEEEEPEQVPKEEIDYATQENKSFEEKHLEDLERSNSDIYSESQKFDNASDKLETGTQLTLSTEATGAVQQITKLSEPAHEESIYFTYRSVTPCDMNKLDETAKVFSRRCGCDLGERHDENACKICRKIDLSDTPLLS
UniProt Q8I4W8: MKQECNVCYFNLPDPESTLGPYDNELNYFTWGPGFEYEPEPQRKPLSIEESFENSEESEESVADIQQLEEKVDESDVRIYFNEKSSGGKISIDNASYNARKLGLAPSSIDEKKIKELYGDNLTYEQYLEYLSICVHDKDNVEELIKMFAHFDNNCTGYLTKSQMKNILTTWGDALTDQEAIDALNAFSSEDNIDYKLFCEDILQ

These are yes or no findings as the source states them, for the method shown. In cells and extracts the contact can be indirect. Some results given as binding are weak or reduced against the parent protein; the word gives no strength.

In the test the target is PfGAP45-GFP (Plasmodium falciparum Glideosome Associated Protein 45 fused with Green Fluorescent Protein at its C-terminus), wild type (P. falciparum (3D7)) (UniProt Q8I5I8). Briefly: co-IP; anti-GFP immunoprecipitation of GAP45-GFP from transgenic parasite lysate (lysis buffer with 1% Triton X-100, 100 mM NaCl, pH 7.5, 4°C; protein A+G sepharose); western blot with anti-MTIP antibody.

Regarding “Myosin Tail Interacting Protein (PfMTIP) (from UniProt Q8I4W8 1-204)”, the binding result is recorded as “binds”.
